Assay results as given in paper PMC9513677, “Systematic multi‐level analysis of an organelle proteome reveals new peroxisomal functions” (Molecular Systems Biology, 2022).
These are yes or no findings as the source states them, for the method shown. For some assays here: In cells and extracts the contact can be indirect. Some binding calls cover weakened binding; strength is not graded here. Where a sequence is shown, tags or fusion partners need not be part of it. One block for each binder: values may come before it.

Tests used:
[1] = target: T1, Flag‐Glr1 expressed in E. coli (pACYCDuet‐1) (Saccharomyces cerevisiae) (UniProt P41921); assay: pull-down; Flag-Glr1 and Pex5 constructs expressed individually or together in E. coli; lysates in TBS; FLAG beads, elution with free FLAG peptide; blots with anti-DYKDDDDK and anti-polyHistidine
T1 sequence: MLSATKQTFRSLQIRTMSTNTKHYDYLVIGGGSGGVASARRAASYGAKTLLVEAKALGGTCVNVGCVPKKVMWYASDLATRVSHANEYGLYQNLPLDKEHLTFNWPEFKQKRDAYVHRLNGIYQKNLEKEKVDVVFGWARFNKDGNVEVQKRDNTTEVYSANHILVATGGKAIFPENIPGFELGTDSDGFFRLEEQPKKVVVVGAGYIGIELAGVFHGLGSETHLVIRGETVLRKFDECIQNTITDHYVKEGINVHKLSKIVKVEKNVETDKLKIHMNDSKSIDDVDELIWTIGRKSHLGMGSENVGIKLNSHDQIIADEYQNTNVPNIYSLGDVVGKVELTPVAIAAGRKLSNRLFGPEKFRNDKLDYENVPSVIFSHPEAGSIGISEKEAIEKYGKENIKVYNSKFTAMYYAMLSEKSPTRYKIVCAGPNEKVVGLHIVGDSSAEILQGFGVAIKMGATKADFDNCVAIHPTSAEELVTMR

[2] = target: T2, Glr1 (glutathione reductase), yeast‐2‐hybrid bait (Saccharomyces cerevisiae) (UniProt P41921); assay: two-hybrid; PJ69‐4A cells; prey on pPC86 (GAL4 activation domain), bait on pPC97 (GAL4 DNA-binding domain); growth on YNBG -trp-leu-his-ade and/or -trp-leu-his +5 mM 3-AT at 30°C
T2 sequence: T1 sequence

binding [2]: binds
B2: Pex5 N′ domain (1–299), yeast‐2‐hybrid prey (domain or fragment, UniProt P35056 1-299)
chain: MDVGSCSVGNNPLAQLHKHTQQNKSLQFNQKNNGRLNESPLQGTNKPGISEAFISNVNAISQENMANMQRFINGEPLIDDKRRMEIGPSSGRLPPFSNVHSLQTSANPTQIKGVNDISHWSQEFQGSNSIQNRNADTGNSEKAWQRGSTTASSRFQYPNTMMNNYAYASMNSLSGSRLQSPAFMNQQQSGRSKEGVNEQEQQPWTDQFEKLEKEVSENLDINDEIEKEENVSEVEQNKPETVEKEEGVYGDQYQSDFQEVWDSIHKDAEEVLPSELVNDDLNLGEDYLKYLGGRVNGNI

binding [2]: binds
B4: Pex5 full‐length, yeast‐2‐hybrid prey (receptor, UniProt P35056 1-612)
chain: MDVGSCSVGNNPLAQLHKHTQQNKSLQFNQKNNGRLNESPLQGTNKPGISEAFISNVNAISQENMANMQRFINGEPLIDDKRRMEIGPSSGRLPPFSNVHSLQTSANPTQIKGVNDISHWSQEFQGSNSIQNRNADTGNSEKAWQRGSTTASSRFQYPNTMMNNYAYASMNSLSGSRLQSPAFMNQQQSGRSKEGVNEQEQQPWTDQFEKLEKEVSENLDINDEIEKEENVSEVEQNKPETVEKEEGVYGDQYQSDFQEVWDSIHKDAEEVLPSELVNDDLNLGEDYLKYLGGRVNGNIEYAFQSNNEYFNNPNAYKIGCLLMENGAKLSEAALAFEAAVKEKPDHVDAWLRLGLVQTQNEKELNGISALEECLKLDPKNLEAMKTLAISYINEGYDMSAFTMLDKWAETKYPEIWSRIKQQDDKFQKEKGFTHIDMNAHITKQFLQLANNLSTIDPEIQLCLGLLFYTKDDFDKTIDCFESALRVNPNDELMWNRLGASLANSNRSEEAIQAYHRALQLKPSFVRARYNLAVSSMNIGCFKEAAGYLLSVLSMHEVNTNNKKGDVGSLLNTYNDTVIETLKRVFIAMNRDDLLQEVKPGMDLKRFKGEFSF

The next lines start with the binder.

B1: Pex5 N′ (1–312) expressed in E. coli (pET28) (domain or fragment, UniProt P35056 1-312)
chain: MDVGSCSVGNNPLAQLHKHTQQNKSLQFNQKNNGRLNESPLQGTNKPGISEAFISNVNAISQENMANMQRFINGEPLIDDKRRMEIGPSSGRLPPFSNVHSLQTSANPTQIKGVNDISHWSQEFQGSNSIQNRNADTGNSEKAWQRGSTTASSRFQYPNTMMNNYAYASMNSLSGSRLQSPAFMNQQQSGRSKEGVNEQEQQPWTDQFEKLEKEVSENLDINDEIEKEENVSEVEQNKPETVEKEEGVYGDQYQSDFQEVWDSIHKDAEEVLPSELVNDDLNLGEDYLKYLGGRVNGNIEYAFQSNNEYFNN
binding [1]: binds

B3: Pex5 C′ (313–612) expressed in E. coli (pET28) (domain or fragment, UniProt P35056 313-612)
chain: PNAYKIGCLLMENGAKLSEAALAFEAAVKEKPDHVDAWLRLGLVQTQNEKELNGISALEECLKLDPKNLEAMKTLAISYINEGYDMSAFTMLDKWAETKYPEIWSRIKQQDDKFQKEKGFTHIDMNAHITKQFLQLANNLSTIDPEIQLCLGLLFYTKDDFDKTIDCFESALRVNPNDELMWNRLGASLANSNRSEEAIQAYHRALQLKPSFVRARYNLAVSSMNIGCFKEAAGYLLSVLSMHEVNTNNKKGDVGSLLNTYNDTVIETLKRVFIAMNRDDLLQEVKPGMDLKRFKGEFSF
binding [1]: binds

B5: Full‐length yeast Pex5 expressed in E. coli (pET28) (receptor, UniProt P35056 1-612)
chain: B4 chain
binding [1]: binds
